# Measurements published in patent publication US10328065B2, “Pharmaceutical combination comprising the PI3K inhibitor alpelisib and the B-RAF inhibitor dabrafenib; the use of such combination in the treatment or prevention of cancer” (Novartis AG, priority 2015, dated 2019).
# The name of at least one read-out is uncertain.
# Tested on: BRAF mutant colorectal cancer cell lines
# Test: Cell proliferation, panel of 7 cell lines
# Assay type: cell-based
# Settings: all but two cell lines (LS411N, OUMS-23)
smiles,measurement,value
"CC(C)(C)c1nc(-c2cccc(NS(=O)(=O)c3c(F)cccc3F)c2F)c(-c2ccnc(N)n2)s1 [COMPOUND B, N-{3-[5-(2-Amino-4-pyrimidinyl)-2-(1,1-dimethylethyl)-1,3-thiazol-4-yl]-2-fluorophenyl}-2,6-difluorobenzenesulfonamide]","growth inhibition as single agent (IC50, in words)",nanomolar to sub-micromolar IC50 values
